These are yes or no findings as the source states them, for the method shown. Binding seen in cells or lysates may run through a third protein. Some results given as binding are weak or reduced against the parent protein; the word gives no strength.
T1: Mind Bomb-2 (MIB2), endogenous (human (endogenous in HEK293, MDA-MB-231, HT1080, 786-0)) (UniProt Q96AX9)
T1 sequence: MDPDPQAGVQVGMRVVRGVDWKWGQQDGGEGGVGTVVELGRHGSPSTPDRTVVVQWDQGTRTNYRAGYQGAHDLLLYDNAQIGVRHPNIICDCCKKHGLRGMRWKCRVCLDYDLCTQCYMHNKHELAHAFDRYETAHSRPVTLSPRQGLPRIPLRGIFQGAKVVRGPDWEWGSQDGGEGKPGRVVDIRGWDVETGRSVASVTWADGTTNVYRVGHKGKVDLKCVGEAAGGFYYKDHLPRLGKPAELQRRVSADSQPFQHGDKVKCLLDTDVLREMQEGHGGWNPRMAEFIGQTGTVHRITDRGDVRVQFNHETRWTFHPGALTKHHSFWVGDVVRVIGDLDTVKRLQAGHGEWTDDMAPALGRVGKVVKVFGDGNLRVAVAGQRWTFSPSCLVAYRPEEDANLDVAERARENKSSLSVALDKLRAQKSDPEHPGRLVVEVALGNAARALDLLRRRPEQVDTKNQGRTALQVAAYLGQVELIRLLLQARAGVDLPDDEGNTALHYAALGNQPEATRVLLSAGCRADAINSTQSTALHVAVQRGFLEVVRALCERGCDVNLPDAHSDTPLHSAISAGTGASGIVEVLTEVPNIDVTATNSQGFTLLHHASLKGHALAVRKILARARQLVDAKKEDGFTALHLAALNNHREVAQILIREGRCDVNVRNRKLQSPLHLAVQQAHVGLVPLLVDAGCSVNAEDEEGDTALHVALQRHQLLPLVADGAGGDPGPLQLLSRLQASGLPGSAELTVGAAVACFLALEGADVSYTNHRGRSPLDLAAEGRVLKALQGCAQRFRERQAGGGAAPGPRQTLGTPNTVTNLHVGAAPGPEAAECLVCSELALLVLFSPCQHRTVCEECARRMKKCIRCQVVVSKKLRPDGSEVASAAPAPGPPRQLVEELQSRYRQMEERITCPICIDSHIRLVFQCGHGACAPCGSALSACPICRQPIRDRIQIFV

B1: TRADD, endogenous (protein, UniProt Q15628 1-312)
chain: MAAGQNGHEEWVGSAYLFVESSLDKVVLSDAYAHPQQKVAVYRALQAALAESGGSPDVLQMLKIHRSDPQLIVQLRFCGRQPCGRFLRAYREGALRAALQRSLAAALAQHSVPLQLELRAGAERLDALLADEERCLSCILAQQPDRLRDEELAELEDALRNLKCGSGARGGDGEVASAPLQPPVPSLSEVKPPPPPPPAQTFLFQGQPVVNRPLSLKDQQTFARSVGLKWRKVGRSLQRGCRALRDPALDSLAYEYEREGLYEQAFQLLRRFVQAEGRRATLQRLVEALEENELTSLAEDLLGLTDPNGGLA
B2: SHARPIN, endogenous (protein, UniProt Q9H0F6 1-387)
chain: MAPPAGGAAAAASDLGSAAVLLAVHAAVRPLGAGPDAEAQLRRLQLSADPERPGRFRLELLGAGPGAVNLEWPLESVSYTIRGPTQHELQPPPGGPGTLSLHFLNPQEAQRWAVLVRGATVEGQNGSKSNSPPALGPEACPVSLPSPPEASTLKGPPPEADLPRSPGNLTEREELAGSLARAIAGGDEKGAAQVAAVLAQHRVALSVQLQEACFPPGPIRLQVTLEDAASAASAASSAHVALQVHPHCTVAALQEQVFSELGFPPAVQRWVIGRCLCVPERSLASYGVRQDGDPAFLYLLSAPREAPATGPSPQHPQKMDGELGRLFPPSLGLPPGPQPAASSLPSPLQPSWSCPSCTFINAPDRPGCEMCSTQRPCTWDPLAAAST

Molecular target: T1, Mind Bomb-2 (MIB2), endogenous (human (endogenous in HEK293, MDA-MB-231, HT1080, 786-0))
Test: co-IP; immuno-precipitation of endogenous MIB2 with a MIB2 antibody (protein A/G agarose) from MDA-MB-231 or 786-0 cells treated with FLAG-hTNF (0.8 μg/mL) for the indicated times; western blot

Row | Binder | binding
1 | B1 | binds
2 | B2 | binds
